This is an account of results in publication PMC7413564, “Phase separation of Arabidopsis EMB1579 controls transcription, mRNA splicing, and development” (PLoS Biology, 2020).

T1: pGBKT7-EMB1579 (Arabidopsis thaliana) (UniProt F4IS91)
T1 sequence: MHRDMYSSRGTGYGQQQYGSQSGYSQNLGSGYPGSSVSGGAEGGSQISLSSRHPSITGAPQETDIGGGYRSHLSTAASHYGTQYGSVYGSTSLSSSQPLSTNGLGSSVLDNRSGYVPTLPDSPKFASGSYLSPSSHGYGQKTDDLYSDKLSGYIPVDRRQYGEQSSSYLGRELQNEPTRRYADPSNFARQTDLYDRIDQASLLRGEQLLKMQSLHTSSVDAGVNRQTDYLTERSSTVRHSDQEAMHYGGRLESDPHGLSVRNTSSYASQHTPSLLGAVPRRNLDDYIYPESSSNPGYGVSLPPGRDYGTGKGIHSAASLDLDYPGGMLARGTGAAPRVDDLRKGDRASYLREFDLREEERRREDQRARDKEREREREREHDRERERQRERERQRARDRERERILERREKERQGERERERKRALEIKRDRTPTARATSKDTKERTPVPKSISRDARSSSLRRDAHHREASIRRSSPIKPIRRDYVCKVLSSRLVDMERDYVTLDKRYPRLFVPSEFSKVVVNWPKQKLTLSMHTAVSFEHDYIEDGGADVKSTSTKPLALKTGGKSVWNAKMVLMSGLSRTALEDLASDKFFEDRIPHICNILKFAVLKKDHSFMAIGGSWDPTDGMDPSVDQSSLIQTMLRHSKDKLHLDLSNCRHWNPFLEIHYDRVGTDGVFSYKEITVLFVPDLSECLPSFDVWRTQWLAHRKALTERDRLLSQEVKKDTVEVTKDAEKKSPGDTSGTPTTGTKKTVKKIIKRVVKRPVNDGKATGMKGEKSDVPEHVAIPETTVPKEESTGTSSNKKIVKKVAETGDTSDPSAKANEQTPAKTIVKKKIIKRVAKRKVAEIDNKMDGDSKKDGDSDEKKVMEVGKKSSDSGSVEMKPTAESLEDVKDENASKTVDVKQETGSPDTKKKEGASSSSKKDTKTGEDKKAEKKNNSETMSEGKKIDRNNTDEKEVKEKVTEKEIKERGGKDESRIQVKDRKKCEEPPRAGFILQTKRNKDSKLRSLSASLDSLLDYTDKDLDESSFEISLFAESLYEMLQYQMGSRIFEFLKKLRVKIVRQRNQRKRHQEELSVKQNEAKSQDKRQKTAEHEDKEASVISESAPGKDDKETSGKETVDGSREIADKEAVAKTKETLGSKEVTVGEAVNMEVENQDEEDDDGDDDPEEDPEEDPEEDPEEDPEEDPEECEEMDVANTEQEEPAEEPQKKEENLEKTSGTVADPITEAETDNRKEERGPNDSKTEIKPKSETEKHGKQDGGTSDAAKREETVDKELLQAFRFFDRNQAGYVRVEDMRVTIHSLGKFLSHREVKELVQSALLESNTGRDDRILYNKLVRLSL

T2: EMB1579-NLuc (Arabidopsis thaliana) (UniProt F4IS91)
T2 sequence: T1 sequence

B1: pGADT7-FIE (protein, UniProt Q9LT47 1-369)
chain: MSKITLGNESIVGSLTPSNKKSYKVTNRIQEGKKPLYAVVFNFLDARFFDVFVTAGGNRITLYNCLGDGAISALQSYADEDKEESFYTVSWACGVNGNPYVAAGGVKGIIRVIDVNSETIHKSLVGHGDSVNEIRTQPLKPQLVITASKDESVRLWNVETGICILIFAGAGGHRYEVLSVDFHPSDIYRFASCGMDTTIKIWSMKEFWTYVEKSFTWTDDPSKFPTKFVQFPVFTASIHTNYVDCNRWFGDFILSKSVDNEILLWEPQLKENSPGEGASDVLLRYPVPMCDIWFIKFSCDLHLSSVAIGNQEGKVYVWDLKSCPPVLITKLSHNQSKSVIRQTAMSVDGSTILACCEDGTIWRWDVITK
B2: pGADT7-MSI4 (protein, UniProt O22607 1-507)
chain: MESDEAAAVSPQATTPSGGTGASGPKKRGRKPKTKEDSQTPSSQQQSDVKMKESGKKTQQSPSVDEKYSQWKGLVPILYDWLANHNLVWPSLSCRWGPQLEQATYKNRQRLYLSEQTDGSVPNTLVIANCEVVKPRVAAAEHISQFNEEARSPFVKKYKTIIHPGEVNRIRELPQNSKIVATHTDSPDVLIWDVETQPNRHAVLGAANSRPDLILTGHQDNAEFALAMCPTEPFVLSGGKDKSVVLWSIQDHITTIGTDSKSSGSIIKQTGEGTDKNESPTVGPRGVYHGHEDTVEDVAFSPTSAQEFCSVGDDSCLILWDARTGTNPVTKVEKAHDADLHCVDWNPHDDNLILTGSADNTVRLFDRRKLTANGVGSPIYKFEGHKAAVLCVQWSPDKSSVFGSSAEDGLLNIWDYDRVSKKSDRAAKSPAGLFFQHAGHRDKVVDFHWNASDPWTIVSVSDDCETTGGGGTLQIWRMSDLIYRPEEEVVAELEKFKSHVMTCASKP
B3: pGADT7-CLF (protein, UniProt P93831 1-902)
chain: MASEASPSSSATRSEPPKDSPAEERGPASKEVSEVIESLKKKLAADRCISIKKRIDENKKNLFAITQSFMRSSMERGGSCKDGSDLLVKRQRDSPGMKSGIDESNNNRYVEDGPASSGMVQGSSVPVKISLRPIKMPDIKRLSPYTTWVFLDRNQRMTEDQSVVGRRRIYYDQTGGEALICSDSEEEAIDDEEEKRDFLEPEDYIIRMTLEQLGLSDSVLAELASFLSRSTSEIKARHGVLMKEKEVSESGDNQAESSLLNKDMEGALDSFDNLFCRRCLVFDCRLHGCSQDLIFPAEKPAPWCPPVDENLTCGANCYKTLLKSGRFPGYGTIEGKTGTSSDGAGTKTTPTKFSSKLNGRKPKTFPSESASSNEKCALETSDSENGLQQDTNSDKVSSSPKVKGSGRRVGRKRNKNRVAERVPRKTQKRQKKTEASDSDSIASGSCSPSDAKHKDNEDATSSSQKHVKSGNSGKSRKNGTPAEVSNNSVKDDVPVCQSNEVASELDAPGSDESLRKEEFMGETVSRGRLATNKLWRPLEKSLFDKGVEIFGMNSCLIARNLLSGFKSCWEVFQYMTCSENKASFFGGDGLNPDGSSKFDINGNMVNNQVRRRSRFLRRRGKVRRLKYTWKSAAYHSIRKRITEKKDQPCRQFNPCNCKIACGKECPCLLNGTCCEKYCGCPKSCKNRFRGCHCAKSQCRSRQCPCFAADRECDPDVCRNCWVIGGDGSLGVPSQRGDNYECRNMKLLLKQQQRVLLGISDVSGWGAFLKNSVSKHEYLGEYTGELISHKEADKRGKIYDRENCSFLFNLNDQFVLDAYRKGDKLKFANHSPEPNCYAKVIMVAGDHRVGIFAKERILAGEELFYDYRYEPDRAPAWAKKPEAPGSKKDENVTPSVGRPKKLA
B4: CLuc-SC35 (protein, UniProt Q9FMG4 1-303)
chain: MSHFGRSGPPDISDTYSLLVLNITFRTTADDLYPLFAKYGKVVDVFIPRDRRTGDSRGFAFVRYKYKDEAHKAVERLDGRVVDGREITVQFAKYGPNAEKISKGRVVEPPPKSRRSRSRSPRRSRSPRRSRSPPRRRSPRRSRSPRRRSRDDYREKDYRKRSRSRSYDRRERHEEKDRDHRRRTRSRSASPDEKRRVRGRYDNESRSHSRSLSASPARRSPRSSSPQKTSPAREVSPDKRSNERSPSPRRSLSPRSPALQKASPSKEMSPERRSNERSPSPGSPAPLRKVDAASRSQSPYAAE
B5: CLuc-FIE (protein, UniProt Q9LT47 1-369)
chain: B1 chain
B6: CLuc-CLF (protein, UniProt P93831 1-902)
chain: B3 chain
B7: CLuc-UAP56A (protein, UniProt Q56XG6 1-427)
chain: MGDARDNEAYEEELLDYEEEDEKVPDSGNKVNGEAVKKGYVGIHSSGFRDFLLKPELLRAIVDSGFEHPSEVQHECIPQAILGMDVICQAKSGMGKTAVFVLSTLQQIEPSPGQVSALVLCHTRELAYQICNEFVRFSTYLPDTKVSVFYGGVNIKIHKDLLKNECPHIVVGTPGRVLALAREKDLSLKNVRHFILDECDKMLESLDMRRDVQEIFKMTPHDKQVMMFSATLSKEIRPVCKKFMQDPMEIYVDDEAKLTLHGLVQHYIKLSEMEKNRKLNDLLDALDFNQVVIFVKSVSRAAELNKLLVECNFPSICIHSGMSQEERLTRYKSFKEGHKRILVATDLVGRGIDIERVNIVINYDMPDSADTYLHRVGRAGRFGTKGLAITFVASASDSEVLNQVQERFEVDIKELPEQIDTSTYMPS

These are yes or no findings as the source states them, for the method shown. For some of these results: In cells and extracts the contact can be indirect. Some entries that bind do so weakly or less than the wild type. For some of these results: Where a sequence is shown, tags or fusion partners need not be part of it.

In the first experiment the target is T1, pGBKT7-EMB1579 (Arabidopsis thaliana). Put plainly: two-hybrid; yeast two-hybrid, pGBKT7 bait and pGADT7 prey in S. cerevisiae strain Gold; growth on SD/-His/-Leu/-Trp/-Ade at 30°C for 3 days.
In the case of B1, the binding entry is on record as “no binding”.
Consider B2, for which the binding result was “binds”.
On to B3, for which the binding entry is given as “no binding”.

The next experiment deals with T2, EMB1579-NLuc (Arabidopsis thaliana). Put plainly: split reporter; firefly split luciferase complementation imaging; NLuc and CLuc fusions co-infiltrated by Agrobacterium into N. benthamiana leaves, 60 hours, 1 mM D-luciferin.
As for B4, the binding result is given as “binds”.
As for B5, the binding result is “no binding”.
The same measure, in the same setting: the value for B6 was “no binding”; that for B7 was “binds”.
